Data from patent EP0395417 (dated 1995).
Where no end group is shown, it is not given here. [ ]: non-standard residue; d: D form.

Experiment: Boc solid-phase peptide synthesis; Benzhydrylamine-polystyrene resin; diisopropylcarbodiimide
Conditions: whole synthesis, scale 0.5 mmole

[dF]FF[dW]KTFT-NH2
isolated mass: 65 mg
